Sequences of proteins named here, by UniProt entry; tags and fusion partners are left off.
UniProt Q6W2J9: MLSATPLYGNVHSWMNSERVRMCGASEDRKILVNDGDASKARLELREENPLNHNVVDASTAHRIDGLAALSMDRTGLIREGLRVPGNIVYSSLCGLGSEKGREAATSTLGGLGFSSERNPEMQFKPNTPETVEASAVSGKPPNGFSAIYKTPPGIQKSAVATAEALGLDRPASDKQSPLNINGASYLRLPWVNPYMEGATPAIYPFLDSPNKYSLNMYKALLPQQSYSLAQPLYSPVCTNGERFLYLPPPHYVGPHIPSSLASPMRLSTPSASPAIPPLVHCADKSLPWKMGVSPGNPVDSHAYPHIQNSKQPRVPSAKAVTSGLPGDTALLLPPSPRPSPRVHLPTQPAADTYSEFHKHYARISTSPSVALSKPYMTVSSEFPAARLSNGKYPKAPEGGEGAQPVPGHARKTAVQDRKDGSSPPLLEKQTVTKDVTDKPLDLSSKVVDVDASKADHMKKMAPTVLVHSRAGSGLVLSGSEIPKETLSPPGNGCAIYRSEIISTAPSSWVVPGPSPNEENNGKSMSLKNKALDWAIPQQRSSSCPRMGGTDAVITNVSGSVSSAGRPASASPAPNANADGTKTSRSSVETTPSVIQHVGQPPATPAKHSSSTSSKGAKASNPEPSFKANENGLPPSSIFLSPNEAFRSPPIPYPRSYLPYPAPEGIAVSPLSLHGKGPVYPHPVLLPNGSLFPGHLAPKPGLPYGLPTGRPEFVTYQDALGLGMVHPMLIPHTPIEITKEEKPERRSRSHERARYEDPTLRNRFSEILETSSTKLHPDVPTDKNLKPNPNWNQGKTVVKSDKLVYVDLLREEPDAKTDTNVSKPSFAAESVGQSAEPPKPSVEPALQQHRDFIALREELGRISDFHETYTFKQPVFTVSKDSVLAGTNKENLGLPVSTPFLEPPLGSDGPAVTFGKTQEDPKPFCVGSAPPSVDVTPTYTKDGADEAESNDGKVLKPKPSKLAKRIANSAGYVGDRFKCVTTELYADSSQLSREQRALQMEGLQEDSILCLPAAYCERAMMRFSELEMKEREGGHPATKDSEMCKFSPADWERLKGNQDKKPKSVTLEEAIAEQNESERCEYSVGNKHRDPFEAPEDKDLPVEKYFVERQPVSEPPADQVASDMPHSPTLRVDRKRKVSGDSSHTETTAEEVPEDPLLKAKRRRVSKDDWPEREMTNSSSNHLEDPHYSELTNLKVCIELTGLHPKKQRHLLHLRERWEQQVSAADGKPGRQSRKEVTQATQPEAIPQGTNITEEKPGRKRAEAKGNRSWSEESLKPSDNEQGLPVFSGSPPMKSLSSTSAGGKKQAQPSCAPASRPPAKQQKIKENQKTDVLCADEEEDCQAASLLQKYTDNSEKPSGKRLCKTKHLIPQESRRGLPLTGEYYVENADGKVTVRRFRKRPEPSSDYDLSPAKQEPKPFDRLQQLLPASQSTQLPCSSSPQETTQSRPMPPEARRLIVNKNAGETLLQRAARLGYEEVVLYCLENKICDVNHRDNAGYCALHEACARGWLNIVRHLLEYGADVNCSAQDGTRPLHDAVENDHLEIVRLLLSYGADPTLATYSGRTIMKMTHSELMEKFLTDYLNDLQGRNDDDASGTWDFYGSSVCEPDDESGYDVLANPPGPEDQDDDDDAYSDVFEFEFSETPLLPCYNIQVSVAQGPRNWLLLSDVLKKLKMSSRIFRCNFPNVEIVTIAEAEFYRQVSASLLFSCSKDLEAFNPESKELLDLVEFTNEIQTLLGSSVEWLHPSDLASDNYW
UniProt O75376: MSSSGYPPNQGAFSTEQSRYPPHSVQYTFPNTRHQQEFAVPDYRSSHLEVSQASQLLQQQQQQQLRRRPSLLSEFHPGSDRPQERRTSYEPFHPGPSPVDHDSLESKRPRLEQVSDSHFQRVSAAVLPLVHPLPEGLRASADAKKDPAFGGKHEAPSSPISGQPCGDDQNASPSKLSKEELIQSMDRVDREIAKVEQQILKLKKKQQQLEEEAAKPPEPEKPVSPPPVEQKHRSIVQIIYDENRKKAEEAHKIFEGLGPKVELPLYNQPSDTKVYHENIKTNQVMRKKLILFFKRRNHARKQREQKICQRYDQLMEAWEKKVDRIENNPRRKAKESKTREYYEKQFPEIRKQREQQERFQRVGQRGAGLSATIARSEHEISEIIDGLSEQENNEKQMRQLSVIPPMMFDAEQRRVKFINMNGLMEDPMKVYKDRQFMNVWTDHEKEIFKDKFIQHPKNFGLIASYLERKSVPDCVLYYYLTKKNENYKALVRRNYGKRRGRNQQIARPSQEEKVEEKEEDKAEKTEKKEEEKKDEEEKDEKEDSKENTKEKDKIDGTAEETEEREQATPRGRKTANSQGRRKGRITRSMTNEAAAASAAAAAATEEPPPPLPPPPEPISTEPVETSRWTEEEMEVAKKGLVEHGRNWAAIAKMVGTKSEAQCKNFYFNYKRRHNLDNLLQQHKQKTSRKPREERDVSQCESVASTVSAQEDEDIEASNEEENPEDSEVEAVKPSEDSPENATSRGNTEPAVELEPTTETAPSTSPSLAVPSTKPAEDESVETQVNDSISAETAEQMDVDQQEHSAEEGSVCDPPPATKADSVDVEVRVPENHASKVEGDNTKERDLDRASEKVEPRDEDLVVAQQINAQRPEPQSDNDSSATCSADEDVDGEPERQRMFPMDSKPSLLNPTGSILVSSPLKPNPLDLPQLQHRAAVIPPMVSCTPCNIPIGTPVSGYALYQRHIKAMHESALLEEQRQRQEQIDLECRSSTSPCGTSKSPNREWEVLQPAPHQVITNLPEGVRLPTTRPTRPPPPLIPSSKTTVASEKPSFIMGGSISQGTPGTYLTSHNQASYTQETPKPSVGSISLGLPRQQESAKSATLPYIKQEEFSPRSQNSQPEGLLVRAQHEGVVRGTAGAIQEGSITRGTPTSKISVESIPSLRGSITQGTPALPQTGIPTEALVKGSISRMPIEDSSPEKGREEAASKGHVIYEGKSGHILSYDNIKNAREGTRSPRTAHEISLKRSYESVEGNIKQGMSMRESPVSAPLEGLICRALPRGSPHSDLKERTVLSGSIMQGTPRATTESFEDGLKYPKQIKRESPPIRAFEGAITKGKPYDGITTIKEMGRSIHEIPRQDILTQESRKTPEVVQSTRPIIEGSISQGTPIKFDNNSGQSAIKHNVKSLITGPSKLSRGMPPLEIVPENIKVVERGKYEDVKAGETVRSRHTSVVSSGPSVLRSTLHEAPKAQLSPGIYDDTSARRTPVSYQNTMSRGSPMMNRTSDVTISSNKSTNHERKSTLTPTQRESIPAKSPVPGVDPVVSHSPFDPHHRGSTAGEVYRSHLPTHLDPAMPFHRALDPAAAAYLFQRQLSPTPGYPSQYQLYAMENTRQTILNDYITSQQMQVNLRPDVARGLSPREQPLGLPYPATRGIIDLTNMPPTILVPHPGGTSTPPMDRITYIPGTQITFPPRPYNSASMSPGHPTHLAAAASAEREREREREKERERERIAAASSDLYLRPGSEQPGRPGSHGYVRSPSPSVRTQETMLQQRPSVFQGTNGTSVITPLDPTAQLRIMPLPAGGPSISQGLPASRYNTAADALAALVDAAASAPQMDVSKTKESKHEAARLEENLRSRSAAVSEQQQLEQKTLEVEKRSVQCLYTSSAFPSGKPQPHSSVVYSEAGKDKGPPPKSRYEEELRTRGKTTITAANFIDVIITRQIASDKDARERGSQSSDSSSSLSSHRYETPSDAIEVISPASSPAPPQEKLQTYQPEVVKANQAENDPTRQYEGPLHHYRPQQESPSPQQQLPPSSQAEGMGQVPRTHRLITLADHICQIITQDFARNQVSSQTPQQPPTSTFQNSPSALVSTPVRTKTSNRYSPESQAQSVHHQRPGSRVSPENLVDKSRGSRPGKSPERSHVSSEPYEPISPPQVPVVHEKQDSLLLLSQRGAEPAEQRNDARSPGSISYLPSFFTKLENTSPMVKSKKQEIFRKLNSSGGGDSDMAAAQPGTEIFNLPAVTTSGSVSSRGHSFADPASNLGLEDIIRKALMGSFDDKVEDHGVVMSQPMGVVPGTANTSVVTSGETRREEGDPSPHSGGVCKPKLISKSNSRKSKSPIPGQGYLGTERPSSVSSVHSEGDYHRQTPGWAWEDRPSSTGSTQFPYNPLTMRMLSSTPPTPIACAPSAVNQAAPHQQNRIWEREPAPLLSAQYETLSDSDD

In paper PMC6079100:

molecular target: T1, BirA*-Flag-TRPS1 (UniProt Q9UHF7); experiment: proximity labelling; BioID: BirA*-Flag-TRPS1 or NLS-BirA*-Flag control in 293T cells, 50 μM biotin for 18 h, streptavidin pull-down, LC-MS/MS, three biological replicates
T1 sequence: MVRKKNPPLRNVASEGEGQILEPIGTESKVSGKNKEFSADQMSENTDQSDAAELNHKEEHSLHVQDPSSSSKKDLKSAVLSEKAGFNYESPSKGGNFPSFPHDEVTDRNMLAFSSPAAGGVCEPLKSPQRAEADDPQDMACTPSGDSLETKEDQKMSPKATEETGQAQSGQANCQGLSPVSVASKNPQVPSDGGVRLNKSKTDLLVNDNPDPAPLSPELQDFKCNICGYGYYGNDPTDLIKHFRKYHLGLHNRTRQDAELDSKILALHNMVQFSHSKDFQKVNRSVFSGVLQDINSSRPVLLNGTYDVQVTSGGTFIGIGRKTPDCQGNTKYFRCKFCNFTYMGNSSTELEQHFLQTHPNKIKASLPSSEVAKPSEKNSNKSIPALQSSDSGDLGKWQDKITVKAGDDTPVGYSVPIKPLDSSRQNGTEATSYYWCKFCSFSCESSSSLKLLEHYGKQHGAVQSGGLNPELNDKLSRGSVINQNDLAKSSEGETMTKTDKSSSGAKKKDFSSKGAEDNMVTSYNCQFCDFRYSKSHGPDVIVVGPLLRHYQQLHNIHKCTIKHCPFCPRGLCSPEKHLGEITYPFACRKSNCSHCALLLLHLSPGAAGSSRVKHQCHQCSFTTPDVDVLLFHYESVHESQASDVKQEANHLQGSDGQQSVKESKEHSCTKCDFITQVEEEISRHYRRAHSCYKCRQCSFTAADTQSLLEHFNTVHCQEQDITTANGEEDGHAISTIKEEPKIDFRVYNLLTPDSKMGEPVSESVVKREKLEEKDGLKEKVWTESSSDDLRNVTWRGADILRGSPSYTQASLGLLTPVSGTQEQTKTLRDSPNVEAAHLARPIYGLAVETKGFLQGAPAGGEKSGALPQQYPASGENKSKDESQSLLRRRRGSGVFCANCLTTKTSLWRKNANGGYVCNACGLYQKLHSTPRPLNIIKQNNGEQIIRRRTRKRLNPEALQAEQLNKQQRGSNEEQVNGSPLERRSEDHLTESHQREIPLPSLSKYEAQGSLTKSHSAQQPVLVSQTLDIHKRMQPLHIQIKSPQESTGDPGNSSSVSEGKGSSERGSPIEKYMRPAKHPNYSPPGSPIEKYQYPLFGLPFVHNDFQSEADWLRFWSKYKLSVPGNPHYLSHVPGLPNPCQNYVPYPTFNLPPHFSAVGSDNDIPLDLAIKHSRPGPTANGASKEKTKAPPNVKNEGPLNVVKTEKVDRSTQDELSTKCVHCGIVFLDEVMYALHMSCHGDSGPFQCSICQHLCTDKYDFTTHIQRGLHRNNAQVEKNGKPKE

| binding | Substance |
| --- | --- |
| binds | BCOR, endogenous in 293T cells (from UniProt Q6W2J9 1-1755) |
| binds | CTBP2, endogenous in 293T cells (from UniProt P56545 1-445) |
| binds | NCOR1, endogenous in 293T cells (from UniProt O75376 1-2440) |

Results are given in words; binding and its absence hold for the method and conditions named. Binding seen in cells or lysates may run through a third protein. These calls come from enrichment with a bait or labelling near it, and not all partners need be listed. Where a sequence is shown, tags or fusion partners need not be part of it.
